This is an account of results in the supplement of paper PMC12819154, “High-throughput peptide-centric local stability assay extends protein–ligand identification to membrane proteins, tissues and bacteria” (Nature Structural & Molecular Biology, 2025).

Sequences of proteins named here, by UniProt entry; tags and fusion partners are left off. A change or cut given only in a name is not applied to a line headed by its entry.
UniProt Q9UL40: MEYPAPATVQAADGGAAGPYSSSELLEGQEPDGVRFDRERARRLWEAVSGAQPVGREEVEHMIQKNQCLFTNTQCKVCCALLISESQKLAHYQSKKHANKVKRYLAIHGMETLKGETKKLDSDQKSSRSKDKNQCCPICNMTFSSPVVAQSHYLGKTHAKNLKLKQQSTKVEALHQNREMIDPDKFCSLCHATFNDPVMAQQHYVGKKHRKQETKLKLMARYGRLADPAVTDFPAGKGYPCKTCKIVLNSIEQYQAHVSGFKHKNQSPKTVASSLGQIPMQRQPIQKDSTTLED
UniProt Q9UNE7: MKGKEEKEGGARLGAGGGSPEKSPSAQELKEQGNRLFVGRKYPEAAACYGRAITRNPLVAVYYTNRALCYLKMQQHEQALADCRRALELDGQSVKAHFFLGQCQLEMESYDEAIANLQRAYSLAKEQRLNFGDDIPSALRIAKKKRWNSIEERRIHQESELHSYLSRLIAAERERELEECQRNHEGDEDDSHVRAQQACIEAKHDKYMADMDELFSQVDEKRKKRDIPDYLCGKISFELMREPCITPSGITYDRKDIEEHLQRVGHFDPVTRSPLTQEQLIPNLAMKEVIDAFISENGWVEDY
UniProt Q9UPN9: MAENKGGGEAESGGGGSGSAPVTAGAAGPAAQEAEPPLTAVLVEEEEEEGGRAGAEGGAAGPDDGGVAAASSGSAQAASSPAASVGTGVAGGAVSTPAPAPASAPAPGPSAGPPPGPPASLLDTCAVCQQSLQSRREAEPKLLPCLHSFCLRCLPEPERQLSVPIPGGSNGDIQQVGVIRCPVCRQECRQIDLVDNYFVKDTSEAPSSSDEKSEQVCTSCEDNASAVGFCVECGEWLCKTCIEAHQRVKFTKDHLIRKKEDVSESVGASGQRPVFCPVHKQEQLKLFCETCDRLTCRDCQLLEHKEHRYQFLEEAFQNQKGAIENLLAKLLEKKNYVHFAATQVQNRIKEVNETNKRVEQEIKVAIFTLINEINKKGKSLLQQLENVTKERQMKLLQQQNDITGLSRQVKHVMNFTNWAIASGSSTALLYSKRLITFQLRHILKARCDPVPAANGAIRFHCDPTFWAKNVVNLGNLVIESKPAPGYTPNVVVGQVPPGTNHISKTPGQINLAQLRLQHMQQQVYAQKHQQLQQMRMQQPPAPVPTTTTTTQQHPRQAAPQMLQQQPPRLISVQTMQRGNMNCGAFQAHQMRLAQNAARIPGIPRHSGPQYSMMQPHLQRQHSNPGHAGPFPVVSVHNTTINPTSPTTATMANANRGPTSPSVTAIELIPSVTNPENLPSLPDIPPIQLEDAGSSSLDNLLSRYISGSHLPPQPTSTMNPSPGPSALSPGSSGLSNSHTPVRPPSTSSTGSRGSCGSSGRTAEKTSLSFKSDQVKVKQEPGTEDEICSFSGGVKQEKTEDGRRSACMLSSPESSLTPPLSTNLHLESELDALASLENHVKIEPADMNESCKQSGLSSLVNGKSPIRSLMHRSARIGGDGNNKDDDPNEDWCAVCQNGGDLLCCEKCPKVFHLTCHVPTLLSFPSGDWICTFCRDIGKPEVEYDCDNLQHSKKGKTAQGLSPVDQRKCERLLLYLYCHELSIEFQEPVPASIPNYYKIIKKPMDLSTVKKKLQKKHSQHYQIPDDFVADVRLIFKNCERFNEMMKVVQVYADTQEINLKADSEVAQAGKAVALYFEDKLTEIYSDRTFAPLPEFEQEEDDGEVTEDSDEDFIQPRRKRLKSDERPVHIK
UniProt Q9ULK4: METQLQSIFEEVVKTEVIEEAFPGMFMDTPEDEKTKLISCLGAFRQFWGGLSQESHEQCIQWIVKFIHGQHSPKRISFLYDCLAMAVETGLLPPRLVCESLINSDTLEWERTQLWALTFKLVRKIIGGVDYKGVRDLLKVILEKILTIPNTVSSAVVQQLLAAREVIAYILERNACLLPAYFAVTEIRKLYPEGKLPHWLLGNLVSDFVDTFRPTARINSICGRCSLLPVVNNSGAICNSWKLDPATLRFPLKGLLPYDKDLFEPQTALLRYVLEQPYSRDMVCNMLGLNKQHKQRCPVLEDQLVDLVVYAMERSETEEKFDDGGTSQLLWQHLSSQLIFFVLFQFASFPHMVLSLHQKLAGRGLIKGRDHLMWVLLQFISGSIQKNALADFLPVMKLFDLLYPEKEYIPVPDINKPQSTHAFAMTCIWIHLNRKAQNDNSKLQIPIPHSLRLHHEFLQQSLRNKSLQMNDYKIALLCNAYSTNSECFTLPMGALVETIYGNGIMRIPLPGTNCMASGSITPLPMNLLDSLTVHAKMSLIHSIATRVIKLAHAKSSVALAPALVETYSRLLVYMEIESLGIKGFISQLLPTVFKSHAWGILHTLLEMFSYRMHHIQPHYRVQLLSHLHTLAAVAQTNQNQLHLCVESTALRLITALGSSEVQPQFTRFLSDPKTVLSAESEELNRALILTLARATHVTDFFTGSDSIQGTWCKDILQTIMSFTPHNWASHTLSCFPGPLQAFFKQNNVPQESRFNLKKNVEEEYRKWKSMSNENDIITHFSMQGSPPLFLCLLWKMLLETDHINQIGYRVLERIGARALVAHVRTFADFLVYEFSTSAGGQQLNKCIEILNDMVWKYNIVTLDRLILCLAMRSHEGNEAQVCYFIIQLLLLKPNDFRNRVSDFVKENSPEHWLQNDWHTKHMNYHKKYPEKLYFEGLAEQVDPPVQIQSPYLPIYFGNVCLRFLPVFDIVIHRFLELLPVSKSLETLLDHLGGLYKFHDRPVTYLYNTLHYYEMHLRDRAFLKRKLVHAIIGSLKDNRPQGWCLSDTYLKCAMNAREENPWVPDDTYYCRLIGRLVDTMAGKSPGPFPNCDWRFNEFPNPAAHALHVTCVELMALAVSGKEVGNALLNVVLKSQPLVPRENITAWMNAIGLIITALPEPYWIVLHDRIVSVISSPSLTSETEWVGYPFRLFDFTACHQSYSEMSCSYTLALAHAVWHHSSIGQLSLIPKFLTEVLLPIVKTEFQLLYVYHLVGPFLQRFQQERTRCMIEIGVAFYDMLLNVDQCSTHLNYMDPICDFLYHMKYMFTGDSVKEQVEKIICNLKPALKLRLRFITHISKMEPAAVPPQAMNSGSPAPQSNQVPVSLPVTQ
UniProt Q9ULR0: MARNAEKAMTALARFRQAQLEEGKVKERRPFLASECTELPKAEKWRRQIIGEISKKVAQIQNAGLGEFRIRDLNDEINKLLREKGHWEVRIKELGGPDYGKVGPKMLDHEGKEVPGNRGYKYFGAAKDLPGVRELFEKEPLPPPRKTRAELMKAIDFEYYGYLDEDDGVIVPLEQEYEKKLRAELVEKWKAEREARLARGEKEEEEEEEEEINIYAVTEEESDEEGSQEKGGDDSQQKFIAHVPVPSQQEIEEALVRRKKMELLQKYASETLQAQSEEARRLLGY
UniProt Q9UHI6: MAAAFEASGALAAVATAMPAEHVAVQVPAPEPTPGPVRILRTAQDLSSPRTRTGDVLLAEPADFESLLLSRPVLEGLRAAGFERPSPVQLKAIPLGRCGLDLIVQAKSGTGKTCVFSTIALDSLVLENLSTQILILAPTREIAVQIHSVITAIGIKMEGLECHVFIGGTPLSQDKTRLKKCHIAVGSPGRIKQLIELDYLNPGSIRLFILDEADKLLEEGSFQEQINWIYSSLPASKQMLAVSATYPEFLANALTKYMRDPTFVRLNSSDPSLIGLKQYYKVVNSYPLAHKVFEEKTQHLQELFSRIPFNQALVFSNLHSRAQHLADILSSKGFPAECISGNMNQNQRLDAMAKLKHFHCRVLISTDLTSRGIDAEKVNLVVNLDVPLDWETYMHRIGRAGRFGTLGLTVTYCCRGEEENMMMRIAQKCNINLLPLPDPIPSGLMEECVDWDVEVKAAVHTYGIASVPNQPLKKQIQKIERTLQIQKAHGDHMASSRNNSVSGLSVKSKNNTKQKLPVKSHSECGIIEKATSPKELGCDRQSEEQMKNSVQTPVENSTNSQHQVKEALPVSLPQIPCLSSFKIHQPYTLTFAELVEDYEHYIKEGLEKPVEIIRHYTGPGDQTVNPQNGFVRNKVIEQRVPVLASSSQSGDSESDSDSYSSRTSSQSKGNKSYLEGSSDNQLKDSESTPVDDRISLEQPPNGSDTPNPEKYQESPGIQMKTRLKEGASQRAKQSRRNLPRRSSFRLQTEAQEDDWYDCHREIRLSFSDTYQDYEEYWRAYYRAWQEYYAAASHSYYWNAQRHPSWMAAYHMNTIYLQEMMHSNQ
UniProt Q9UI14, whole entry: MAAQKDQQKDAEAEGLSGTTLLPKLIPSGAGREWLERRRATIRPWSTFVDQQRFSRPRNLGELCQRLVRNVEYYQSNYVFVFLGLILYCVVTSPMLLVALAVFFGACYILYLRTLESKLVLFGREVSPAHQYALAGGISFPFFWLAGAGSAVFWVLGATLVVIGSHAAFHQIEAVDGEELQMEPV
UniProt Q9UIS9: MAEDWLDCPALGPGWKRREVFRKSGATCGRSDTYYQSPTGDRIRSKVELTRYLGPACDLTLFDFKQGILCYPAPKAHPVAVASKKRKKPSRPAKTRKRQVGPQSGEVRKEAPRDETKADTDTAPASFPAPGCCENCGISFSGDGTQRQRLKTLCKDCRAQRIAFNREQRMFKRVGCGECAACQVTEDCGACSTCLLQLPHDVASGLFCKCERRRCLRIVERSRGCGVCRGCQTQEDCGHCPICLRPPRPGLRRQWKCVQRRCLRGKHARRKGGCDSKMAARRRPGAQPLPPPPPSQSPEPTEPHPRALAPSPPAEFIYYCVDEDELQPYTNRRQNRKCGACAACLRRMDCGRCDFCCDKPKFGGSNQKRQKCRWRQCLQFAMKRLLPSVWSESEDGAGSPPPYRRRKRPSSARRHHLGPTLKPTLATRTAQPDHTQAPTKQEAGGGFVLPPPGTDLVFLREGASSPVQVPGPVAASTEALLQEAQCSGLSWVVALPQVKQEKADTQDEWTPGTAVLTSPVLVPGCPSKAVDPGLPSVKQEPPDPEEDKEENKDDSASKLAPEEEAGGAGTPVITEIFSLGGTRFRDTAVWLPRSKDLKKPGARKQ
UniProt Q9ULC8: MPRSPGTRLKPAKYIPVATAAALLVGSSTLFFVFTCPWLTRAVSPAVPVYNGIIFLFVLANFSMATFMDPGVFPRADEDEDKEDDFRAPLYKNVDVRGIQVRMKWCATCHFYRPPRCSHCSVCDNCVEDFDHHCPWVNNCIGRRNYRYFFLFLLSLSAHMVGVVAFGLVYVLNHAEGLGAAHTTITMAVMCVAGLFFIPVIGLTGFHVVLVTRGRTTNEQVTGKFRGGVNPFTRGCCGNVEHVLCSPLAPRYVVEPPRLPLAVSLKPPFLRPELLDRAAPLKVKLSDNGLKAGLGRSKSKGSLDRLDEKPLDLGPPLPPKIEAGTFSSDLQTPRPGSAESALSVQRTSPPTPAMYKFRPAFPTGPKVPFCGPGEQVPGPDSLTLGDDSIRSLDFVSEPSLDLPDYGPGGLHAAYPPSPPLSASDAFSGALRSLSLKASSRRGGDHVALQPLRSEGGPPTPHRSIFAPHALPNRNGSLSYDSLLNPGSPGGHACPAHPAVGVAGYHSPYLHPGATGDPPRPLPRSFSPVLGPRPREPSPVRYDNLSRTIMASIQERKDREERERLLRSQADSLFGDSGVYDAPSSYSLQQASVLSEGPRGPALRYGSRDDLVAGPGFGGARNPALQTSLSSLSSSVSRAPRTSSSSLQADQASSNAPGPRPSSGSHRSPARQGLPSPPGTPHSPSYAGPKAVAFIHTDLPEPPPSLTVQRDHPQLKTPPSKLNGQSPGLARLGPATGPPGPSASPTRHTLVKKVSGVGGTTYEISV

The other results are listed elsewhere or left out. Most entries show no effect beyond the scatter of the controls.

Compound in this assay: Cc1nc(Nc2ncc(C(=O)Nc3c(C)cccc3Cl)s2)cc(N2CCN(CCO)CC2)n1 [dasatinib]
Kind of assay: log2 fold change of tryptic peptide abundance, ligand vs vehicle (limited proteolysis) (log2 ratio); higher = more trypsin-susceptible (destabilized). Conditions: ligand concentration: 5 uM; sample: K562 cleared lysate.
Turning to “ZNF346 (peptide sequence: LWEAVSGAQPVGREEVEHMIQK, peptide start residue: 44) (UniProt Q9UL40)”, the log2 fold change was -0.42. Regarding “STUB1 (peptide sequence: LGAGGGSPEKSPSAQELK, peptide start residue: 13) (UniProt Q9UNE7)”, the log2 fold change came to 0.124. As to “UNC13A (peptide sequence: LKDHMVR, peptide start residue: 1335) (UniProt Q9UPW8)”, the log2 fold change was found to be 0.188. With “TRIM33 (peptide sequence: KPMDLSTVK, peptide start residue: 999) (UniProt Q9UPN9)”, the log2 fold change is -0.411. Take “MED23 (peptide sequence: ENSPEHWLQNDWHTK, peptide start residue: 906) (UniProt Q9ULK4)”: the log2 fold change was -0.29. With “ISY1 (peptide sequence: RPFLASECTELPK, peptide start residue: 29) (UniProt Q9ULR0)”, the log2 fold change was found to be 0.0972. As to “DDX20 (peptide sequence: EIAVQIHSVITAIGIK, peptide start residue: 141) (UniProt Q9UHI6)”, the log2 fold change is 0.187. As for “RABAC1 (peptide sequence: DQQKDAEAEGLSGTTLLPK, peptide start residue: 6) (UniProt Q9UI14)”, the log2 fold change is -0.114. As for “MBD1 (peptide sequence: AVDPGLPSVK, peptide start residue: 529) (UniProt Q9UIS9)”, the log2 fold change stood at 0.382.

Regarding “ZDHHC8 (peptide sequence: TSSSSLQADQASSNAPGPRPSSGSHR, peptide start residue: 641) (UniProt Q9ULC8)”, the log2 fold change was -0.0773.
